These are yes or no findings as the source states them, for the method shown. In cells and extracts the contact can be indirect. A yes stands for co-enrichment or nearness to the bait. Other partners may have been found. Tags and fused reporters may be left off the sequences shown.
Molecular target: T1, Flag-ALDH9A1 (human) (UniProt P49189)
T1 sequence: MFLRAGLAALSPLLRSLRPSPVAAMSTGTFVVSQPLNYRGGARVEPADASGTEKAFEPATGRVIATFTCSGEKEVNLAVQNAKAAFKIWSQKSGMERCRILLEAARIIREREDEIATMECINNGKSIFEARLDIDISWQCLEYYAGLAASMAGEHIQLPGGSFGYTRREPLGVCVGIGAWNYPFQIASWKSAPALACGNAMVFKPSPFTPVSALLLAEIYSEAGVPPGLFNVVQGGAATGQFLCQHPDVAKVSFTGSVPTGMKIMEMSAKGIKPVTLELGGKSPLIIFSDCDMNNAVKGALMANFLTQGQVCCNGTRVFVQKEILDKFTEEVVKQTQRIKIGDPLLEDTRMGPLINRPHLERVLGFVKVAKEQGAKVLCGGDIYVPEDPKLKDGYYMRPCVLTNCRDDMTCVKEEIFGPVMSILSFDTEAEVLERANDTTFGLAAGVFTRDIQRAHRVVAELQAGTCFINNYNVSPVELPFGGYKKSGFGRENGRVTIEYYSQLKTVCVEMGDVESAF
Experiment: affinity purification with mass spectrometry; lysate of HEK293T cells stably transfected with ALDH9A1-flag lentivirus or vector virus; anti-flag antibodies in Co-IP buffer overnight at 4 °C; RIPA wash; shotgun LC-MS/MS

The chains behind the UniProt entries cited, without tags or fusion partners.
UniProt P06748: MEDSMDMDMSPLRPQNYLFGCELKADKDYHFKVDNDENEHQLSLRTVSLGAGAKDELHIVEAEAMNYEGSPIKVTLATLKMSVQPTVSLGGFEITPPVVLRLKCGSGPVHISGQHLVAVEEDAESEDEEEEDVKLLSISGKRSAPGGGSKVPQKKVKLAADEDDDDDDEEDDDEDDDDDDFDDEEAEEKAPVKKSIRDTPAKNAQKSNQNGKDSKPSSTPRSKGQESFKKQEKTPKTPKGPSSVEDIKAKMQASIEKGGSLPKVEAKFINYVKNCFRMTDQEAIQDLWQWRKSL

binding: binds
Substance: nucleophosmin 1 (NPM1), endogenous (from UniProt P06748 1-294)
